Results are given in words; binding and its absence hold for the method and conditions named. In cells and extracts the contact can be indirect. For some of these results: A result given as binding can be weak or reduced; the word gives no strength. For some of these results: Where a sequence is shown, tags or fusion partners need not be part of it.
Experiments:
Experiment in all cases: pull-down; GST or GST fusion proteins cross‐linked to glutathione‐agarose beads (DMP), incubated with total lysates of HEK293T cells expressing Flag‐E47; Western blot with anti‐Flag; only the target purified
[1] = biological target: T1, GST‐HLH‐only‐STRA8 (mouse) (UniProt P70278)
T1 sequence: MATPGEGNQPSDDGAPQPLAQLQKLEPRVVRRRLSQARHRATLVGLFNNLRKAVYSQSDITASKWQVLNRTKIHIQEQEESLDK

Chains of the proteins cited; added tags and fusions are not shown.
UniProt P10085: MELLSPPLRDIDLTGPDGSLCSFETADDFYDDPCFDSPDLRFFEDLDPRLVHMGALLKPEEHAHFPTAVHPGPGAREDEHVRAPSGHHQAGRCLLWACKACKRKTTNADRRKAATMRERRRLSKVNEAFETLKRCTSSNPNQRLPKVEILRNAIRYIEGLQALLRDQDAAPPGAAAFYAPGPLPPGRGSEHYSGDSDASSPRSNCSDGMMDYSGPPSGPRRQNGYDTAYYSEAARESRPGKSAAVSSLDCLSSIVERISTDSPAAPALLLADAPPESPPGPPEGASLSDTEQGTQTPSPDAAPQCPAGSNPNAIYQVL

GST‐MYOD fusion protein = GST‐MYOD fusion protein (UniProt P10085)
[2] = biological target: T2, GST‐STRA8 fusion protein (mouse) (UniProt P70278)
T2 sequence: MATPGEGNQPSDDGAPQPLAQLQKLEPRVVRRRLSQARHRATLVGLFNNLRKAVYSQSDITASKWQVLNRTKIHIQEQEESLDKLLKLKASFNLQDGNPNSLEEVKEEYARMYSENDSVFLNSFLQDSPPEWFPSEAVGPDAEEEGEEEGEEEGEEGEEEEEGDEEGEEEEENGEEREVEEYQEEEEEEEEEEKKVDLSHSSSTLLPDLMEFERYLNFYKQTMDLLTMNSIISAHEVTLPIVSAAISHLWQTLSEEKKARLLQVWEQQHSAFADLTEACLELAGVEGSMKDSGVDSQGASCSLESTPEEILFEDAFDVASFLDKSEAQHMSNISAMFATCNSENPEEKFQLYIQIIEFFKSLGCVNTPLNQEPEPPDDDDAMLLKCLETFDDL

GST‐ΔHLH‐STRA8 (mouse) = biological target: T3, GST‐ΔHLH‐STRA8 (mouse) (UniProt P70278)
T3 sequence: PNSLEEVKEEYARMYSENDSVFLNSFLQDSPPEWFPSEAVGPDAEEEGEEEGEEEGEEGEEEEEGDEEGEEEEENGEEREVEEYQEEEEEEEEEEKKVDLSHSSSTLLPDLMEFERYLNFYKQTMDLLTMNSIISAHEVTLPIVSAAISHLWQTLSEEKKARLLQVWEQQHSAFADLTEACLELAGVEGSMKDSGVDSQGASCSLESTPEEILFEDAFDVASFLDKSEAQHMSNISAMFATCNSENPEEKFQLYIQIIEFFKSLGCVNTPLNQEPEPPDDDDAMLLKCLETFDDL

binding [1]: binds
binding (GST‐MYOD fusion protein): binds
binding [2]: binds
binding (GST‐ΔHLH‐STRA8 (mouse)): no binding
Substance: Flag‐E47 (from UniProt P15806-2)
